In the supplement of paper PMC12823440, “Inhibitors supercharge kinase turnover through native proteolytic circuits” (Nature, 2025):
The list shows a part of the results. Hit calls seldom repeat between salt and free forms of one compound.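 Kinases, fused to nanoluciferase, were expressed in K562 cells; luminescence was measured every 4 h from 2 to 18 h as percent of control (DMSO = 100%, positive control = 0%). A time point is decreased if signal falls significantly (2 sigma). Hits were called by the authors by a rule that is not shown; the count of time points alone does not decide it.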

The chains behind the UniProt entries cited, without tags or fusion partners. Where a name states a change or a piece, a line headed by the entry shows the natural chain unless it says otherwise.
UniProt Q9BRS2: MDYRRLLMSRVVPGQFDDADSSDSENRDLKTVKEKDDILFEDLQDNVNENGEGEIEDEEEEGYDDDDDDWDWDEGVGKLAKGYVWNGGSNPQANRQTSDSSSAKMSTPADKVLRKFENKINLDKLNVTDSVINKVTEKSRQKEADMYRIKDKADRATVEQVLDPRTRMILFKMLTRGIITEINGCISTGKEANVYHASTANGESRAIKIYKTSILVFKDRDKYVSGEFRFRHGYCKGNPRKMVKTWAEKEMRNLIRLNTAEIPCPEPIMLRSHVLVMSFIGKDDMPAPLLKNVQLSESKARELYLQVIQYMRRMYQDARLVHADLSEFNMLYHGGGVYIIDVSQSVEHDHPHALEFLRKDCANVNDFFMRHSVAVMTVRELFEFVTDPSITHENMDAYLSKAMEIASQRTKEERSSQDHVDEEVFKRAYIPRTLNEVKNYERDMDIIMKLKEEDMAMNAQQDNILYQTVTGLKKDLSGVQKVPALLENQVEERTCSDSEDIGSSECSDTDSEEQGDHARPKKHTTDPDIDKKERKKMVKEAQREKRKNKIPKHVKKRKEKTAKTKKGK
UniProt Q15418, whole entry: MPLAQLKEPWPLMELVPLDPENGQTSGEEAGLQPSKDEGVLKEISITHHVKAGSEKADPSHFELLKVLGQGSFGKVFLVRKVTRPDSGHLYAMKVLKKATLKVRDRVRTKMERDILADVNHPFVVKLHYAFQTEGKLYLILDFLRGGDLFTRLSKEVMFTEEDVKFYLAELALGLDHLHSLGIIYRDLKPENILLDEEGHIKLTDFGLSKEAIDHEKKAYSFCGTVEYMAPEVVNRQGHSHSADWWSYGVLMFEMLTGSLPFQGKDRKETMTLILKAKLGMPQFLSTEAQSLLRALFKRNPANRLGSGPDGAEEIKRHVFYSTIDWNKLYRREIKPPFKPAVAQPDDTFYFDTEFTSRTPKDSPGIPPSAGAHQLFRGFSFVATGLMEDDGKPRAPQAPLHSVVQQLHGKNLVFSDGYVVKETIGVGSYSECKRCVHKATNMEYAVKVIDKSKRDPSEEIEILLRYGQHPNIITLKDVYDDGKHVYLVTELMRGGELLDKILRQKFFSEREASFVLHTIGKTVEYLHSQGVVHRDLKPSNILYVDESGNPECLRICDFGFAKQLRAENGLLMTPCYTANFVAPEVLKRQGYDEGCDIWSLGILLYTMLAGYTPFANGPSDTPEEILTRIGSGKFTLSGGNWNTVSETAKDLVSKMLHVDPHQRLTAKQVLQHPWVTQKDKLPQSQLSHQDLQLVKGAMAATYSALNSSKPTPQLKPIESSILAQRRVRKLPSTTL
UniProt Q9NYA1, whole entry: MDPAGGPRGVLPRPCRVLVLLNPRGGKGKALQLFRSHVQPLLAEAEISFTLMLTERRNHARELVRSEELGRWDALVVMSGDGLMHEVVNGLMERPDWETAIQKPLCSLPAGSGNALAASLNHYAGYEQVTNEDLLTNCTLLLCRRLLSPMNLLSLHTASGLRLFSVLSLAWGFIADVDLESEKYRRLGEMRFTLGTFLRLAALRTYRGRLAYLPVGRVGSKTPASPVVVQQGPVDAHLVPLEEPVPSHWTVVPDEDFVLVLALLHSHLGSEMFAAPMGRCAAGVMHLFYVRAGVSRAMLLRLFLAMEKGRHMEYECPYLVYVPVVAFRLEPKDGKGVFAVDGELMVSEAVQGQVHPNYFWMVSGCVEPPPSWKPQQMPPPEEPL
UniProt Q15208: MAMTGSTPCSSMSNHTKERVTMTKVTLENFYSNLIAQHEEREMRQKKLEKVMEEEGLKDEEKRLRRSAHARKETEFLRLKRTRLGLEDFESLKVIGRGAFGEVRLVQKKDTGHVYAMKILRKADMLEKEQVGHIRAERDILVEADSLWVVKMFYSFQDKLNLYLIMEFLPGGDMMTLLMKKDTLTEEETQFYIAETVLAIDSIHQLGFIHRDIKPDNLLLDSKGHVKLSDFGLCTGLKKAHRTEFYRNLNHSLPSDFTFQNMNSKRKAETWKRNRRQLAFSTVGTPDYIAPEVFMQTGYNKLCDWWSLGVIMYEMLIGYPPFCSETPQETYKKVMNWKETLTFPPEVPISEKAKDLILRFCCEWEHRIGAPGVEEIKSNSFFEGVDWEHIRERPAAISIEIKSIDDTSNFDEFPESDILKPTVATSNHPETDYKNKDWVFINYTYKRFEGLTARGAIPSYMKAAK
UniProt P29597: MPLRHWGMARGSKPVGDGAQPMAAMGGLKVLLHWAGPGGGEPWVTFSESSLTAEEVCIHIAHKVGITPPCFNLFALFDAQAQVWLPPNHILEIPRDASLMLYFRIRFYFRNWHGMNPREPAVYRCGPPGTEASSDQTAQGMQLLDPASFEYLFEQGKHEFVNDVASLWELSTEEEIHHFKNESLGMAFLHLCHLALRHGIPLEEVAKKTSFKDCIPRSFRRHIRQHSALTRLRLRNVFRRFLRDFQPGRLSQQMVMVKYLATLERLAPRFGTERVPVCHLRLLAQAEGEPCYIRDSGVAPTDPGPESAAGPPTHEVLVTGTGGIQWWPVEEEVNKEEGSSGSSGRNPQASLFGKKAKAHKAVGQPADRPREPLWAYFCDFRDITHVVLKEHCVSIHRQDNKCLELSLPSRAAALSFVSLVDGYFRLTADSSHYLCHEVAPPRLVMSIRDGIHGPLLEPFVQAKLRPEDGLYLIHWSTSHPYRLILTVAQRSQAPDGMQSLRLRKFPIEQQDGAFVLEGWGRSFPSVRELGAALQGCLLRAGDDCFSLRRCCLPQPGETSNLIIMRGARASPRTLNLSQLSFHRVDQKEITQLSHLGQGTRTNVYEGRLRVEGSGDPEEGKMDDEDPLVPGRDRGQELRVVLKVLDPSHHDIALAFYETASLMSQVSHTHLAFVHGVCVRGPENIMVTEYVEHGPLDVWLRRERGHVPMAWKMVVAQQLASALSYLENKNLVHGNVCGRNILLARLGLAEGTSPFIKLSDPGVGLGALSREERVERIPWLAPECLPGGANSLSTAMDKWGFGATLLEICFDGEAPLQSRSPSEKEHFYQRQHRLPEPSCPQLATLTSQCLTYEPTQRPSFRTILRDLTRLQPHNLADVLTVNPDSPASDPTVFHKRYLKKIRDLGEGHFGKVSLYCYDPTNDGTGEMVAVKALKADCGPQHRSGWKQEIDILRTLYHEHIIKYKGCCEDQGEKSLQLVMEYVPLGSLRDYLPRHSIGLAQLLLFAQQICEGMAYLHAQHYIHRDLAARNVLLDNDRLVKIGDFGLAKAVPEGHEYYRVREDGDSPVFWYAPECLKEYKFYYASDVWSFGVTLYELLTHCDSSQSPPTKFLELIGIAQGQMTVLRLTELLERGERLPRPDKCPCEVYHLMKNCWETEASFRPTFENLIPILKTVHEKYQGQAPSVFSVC
UniProt Q6PHR2: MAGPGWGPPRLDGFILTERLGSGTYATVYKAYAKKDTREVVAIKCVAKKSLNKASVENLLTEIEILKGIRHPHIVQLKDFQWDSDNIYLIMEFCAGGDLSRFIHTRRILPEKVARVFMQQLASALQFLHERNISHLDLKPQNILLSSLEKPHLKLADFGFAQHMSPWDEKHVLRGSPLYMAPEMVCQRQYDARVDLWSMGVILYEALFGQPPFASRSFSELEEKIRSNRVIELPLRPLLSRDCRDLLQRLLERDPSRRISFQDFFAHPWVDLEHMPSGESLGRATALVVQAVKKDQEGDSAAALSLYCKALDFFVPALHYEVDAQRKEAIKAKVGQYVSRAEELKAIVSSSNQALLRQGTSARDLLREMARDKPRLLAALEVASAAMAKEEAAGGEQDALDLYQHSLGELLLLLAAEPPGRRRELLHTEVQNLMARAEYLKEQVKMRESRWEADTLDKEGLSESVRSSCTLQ
UniProt P07947, whole entry, looked up: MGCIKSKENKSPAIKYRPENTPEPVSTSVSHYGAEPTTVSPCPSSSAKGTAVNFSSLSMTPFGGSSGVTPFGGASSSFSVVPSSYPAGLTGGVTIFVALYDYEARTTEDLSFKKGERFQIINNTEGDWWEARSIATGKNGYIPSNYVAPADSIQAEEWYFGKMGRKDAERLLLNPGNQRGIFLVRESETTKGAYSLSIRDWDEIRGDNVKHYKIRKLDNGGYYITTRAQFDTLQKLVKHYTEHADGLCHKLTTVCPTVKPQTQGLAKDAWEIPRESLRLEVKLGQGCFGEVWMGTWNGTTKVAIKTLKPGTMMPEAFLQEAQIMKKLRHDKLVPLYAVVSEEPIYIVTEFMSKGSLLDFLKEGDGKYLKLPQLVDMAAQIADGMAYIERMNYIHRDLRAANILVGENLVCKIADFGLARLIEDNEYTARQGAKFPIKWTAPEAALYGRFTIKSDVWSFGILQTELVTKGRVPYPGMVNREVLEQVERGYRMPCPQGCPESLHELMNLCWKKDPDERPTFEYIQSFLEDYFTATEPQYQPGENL
UniProt P43403: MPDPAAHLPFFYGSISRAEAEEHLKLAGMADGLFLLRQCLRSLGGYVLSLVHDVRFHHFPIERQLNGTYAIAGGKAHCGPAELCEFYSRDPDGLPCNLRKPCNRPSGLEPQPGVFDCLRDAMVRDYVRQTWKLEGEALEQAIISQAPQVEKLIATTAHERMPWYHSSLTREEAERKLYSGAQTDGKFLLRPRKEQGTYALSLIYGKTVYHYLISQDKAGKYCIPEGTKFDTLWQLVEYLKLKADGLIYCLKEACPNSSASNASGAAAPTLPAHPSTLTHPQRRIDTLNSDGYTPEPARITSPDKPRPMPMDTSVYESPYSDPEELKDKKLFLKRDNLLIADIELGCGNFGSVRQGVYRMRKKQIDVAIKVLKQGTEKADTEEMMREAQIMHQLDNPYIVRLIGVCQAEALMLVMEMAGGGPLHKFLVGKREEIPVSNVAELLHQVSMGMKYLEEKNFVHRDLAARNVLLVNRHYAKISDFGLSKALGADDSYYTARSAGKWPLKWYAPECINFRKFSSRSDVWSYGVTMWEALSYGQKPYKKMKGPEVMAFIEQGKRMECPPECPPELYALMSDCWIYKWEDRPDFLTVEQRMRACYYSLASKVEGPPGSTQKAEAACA
UniProt P00519, whole entry: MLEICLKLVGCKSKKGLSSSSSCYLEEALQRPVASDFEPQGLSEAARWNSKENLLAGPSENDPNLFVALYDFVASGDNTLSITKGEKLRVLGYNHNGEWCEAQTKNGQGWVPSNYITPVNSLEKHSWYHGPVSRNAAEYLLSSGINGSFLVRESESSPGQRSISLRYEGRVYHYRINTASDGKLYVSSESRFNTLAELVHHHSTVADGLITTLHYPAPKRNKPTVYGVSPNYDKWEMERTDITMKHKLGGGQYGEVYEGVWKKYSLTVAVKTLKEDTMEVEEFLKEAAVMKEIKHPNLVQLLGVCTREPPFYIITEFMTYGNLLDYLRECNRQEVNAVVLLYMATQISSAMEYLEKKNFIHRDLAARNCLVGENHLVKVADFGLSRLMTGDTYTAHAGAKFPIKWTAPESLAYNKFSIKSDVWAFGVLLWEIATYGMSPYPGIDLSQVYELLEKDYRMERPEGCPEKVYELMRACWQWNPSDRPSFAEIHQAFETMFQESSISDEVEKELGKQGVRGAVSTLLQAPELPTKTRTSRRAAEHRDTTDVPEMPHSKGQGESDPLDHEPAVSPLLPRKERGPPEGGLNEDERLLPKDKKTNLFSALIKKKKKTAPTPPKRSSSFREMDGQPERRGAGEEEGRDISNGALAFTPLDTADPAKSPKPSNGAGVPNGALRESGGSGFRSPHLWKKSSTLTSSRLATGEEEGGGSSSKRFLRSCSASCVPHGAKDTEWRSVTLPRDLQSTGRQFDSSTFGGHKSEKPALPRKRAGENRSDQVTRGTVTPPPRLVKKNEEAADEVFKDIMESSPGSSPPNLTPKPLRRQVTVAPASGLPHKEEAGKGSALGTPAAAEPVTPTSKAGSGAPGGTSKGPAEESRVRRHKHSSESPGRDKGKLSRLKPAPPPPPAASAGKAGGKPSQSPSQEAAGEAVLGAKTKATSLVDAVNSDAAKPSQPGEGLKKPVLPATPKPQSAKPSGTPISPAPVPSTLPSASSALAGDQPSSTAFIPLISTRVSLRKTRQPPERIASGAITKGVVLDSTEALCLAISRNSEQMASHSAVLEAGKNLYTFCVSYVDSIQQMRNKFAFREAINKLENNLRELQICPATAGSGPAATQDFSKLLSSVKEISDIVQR
UniProt P31749: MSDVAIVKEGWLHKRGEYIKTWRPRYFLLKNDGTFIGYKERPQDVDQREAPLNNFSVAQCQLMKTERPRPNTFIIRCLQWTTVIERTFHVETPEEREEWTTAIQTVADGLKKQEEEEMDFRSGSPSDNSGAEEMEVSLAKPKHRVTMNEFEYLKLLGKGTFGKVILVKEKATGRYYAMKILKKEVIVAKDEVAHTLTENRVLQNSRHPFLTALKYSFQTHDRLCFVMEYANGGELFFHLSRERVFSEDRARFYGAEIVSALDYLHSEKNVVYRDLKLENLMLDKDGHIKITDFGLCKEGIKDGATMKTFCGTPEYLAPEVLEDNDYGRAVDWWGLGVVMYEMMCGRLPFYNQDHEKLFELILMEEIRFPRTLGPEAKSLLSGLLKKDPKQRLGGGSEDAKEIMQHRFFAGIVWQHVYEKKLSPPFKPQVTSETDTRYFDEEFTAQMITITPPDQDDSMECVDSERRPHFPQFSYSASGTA

Legend:
Conditions in all cases: K562; 2-18 h
RET = RET (UniProt P07949); assay: kinase-Nluc reporter destabilization hit call (1 = scored as downregulated) (binary); higher = compound decreases kinase abundance
[1] = target: RET_M918T (clone: RET_mut) (UniProt P07949); assay: as above
RIOK1 = RIOK1 (UniProt Q9BRS2); assay: as above
RIPK1 = RIPK1 (UniProt Q13546); assay: as above
RIPK2 = RIPK2 (UniProt O43353); assay: as above
ROR2 = ROR2 (UniProt Q01974); assay: as above
RPS6KA1 = RPS6KA1 (UniProt Q15418); assay: as above
SPHK1 = SPHK1 (UniProt Q9NYA1); assay: as above
SRC = SRC (UniProt P12931); assay: as above
STK24 = STK24 (UniProt Q9Y6E0); assay: as above
STK38 = STK38 (UniProt Q15208); assay: as above
SYK = SYK (UniProt P43405); assay: as above
TEC = TEC (UniProt P42680); assay: as above
TYK2 = TYK2 (UniProt P29597); assay: as above
ULK3 = ULK3 (UniProt Q6PHR2); assay: as above
YES1 = YES1 (UniProt P07947); assay: as above
ZAK = ZAK (UniProt Q9NYL2); assay: as above
ZAP70 = ZAP70 (UniProt P43403); assay: as above
ABL1 = ABL1 (UniProt P00519); assay: number of time points (of 5) at which kinase-Nluc abundance scored as decreased, DMSO-normalised (count); higher = more persistent destabilization
AKT1 = AKT1 (UniProt P31749); assay: as above

| SMILES | kinase-Nluc reporter destabilization hit call (RET) | kinase-Nluc reporter destabilization hit call [1] | kinase-Nluc reporter destabilization hit call (RIOK1) | kinase-Nluc reporter destabilization hit call (RIPK1) | kinase-Nluc reporter destabilization hit call (RIPK2) | kinase-Nluc reporter destabilization hit call (ROR2) | kinase-Nluc reporter destabilization hit call (RPS6KA1) | kinase-Nluc reporter destabilization hit call (SPHK1) | kinase-Nluc reporter destabilization hit call (SRC) | kinase-Nluc reporter destabilization hit call (STK24) | kinase-Nluc reporter destabilization hit call (STK38) | kinase-Nluc reporter destabilization hit call (SYK) | kinase-Nluc reporter destabilization hit call (TEC) | kinase-Nluc reporter destabilization hit call (TYK2) | kinase-Nluc reporter destabilization hit call (ULK3) | kinase-Nluc reporter destabilization hit call (YES1) | kinase-Nluc reporter destabilization hit call (ZAK) | kinase-Nluc reporter destabilization hit call (ZAP70) | number of time points (ABL1) | number of time points (AKT1) |
| --- | --- | --- | --- | --- | --- | --- | --- | --- | --- | --- | --- | --- | --- | --- | --- | --- | --- | --- | --- | --- |
| CC(C)(C)NC(=O)c1cncn1C1CCN(c2ccc(-c3nnc(C(F)(F)F)o3)cn2)CC1 (10 µM) | inactive: 0 | inactive: 0 | inactive: 0 | inactive: 0 | inactive: 0 | inactive: 0 | inactive: 0 | inactive: 0 | inactive: 0 | inactive: 0 | inactive: 0 | inactive: 0 | inactive: 0 | inactive: 0 | inactive: 0 | inactive: 0 | inactive: 0 | inactive: 0 | 0 | 0 |
| COc1ccc([C@H]2c3[nH]c4ccc(Cl)cc4c3CCN2C(=O)Oc2ccc(Cl)cc2)cc1 (2.5 µM) | inactive: 0 | inactive: 0 | inactive: 0 | inactive: 0 | inactive: 0 | inactive: 0 | inactive: 0 | inactive: 0 | inactive: 0 | inactive: 0 | inactive: 0 | inactive: 0 | inactive: 0 | inactive: 0 | inactive: 0 | inactive: 0 | inactive: 0 | inactive: 0 | 0 | 0 |
| CNC(=O)c1ccc(-c2cnc3cnc(C(=O)N(C)c4ccc(Cl)cc4)cn23)cc1 (2.5 µM) | inactive: 0 | inactive: 0 | inactive: 0 | inactive: 0 | inactive: 0 | inactive: 0 | inactive: 0 | inactive: 0 | inactive: 0 | inactive: 0 | inactive: 0 | inactive: 0 | inactive: 0 | inactive: 0 | inactive: 0 | inactive: 0 | inactive: 0 | inactive: 0 | 0 | 0 |
| C=C1C(=O)O[C@@H]2C[C@@]3(C)CCC[C@H](C)C3=C[C@H]12 [Alantolactone] (10 µM) | inactive: 0 | inactive: 0 | inactive: 0 | inactive: 0 | inactive: 0 | inactive: 0 | inactive: 0 | inactive: 0 | inactive: 0 | inactive: 0 | inactive: 0 | inactive: 0 | inactive: 0 | inactive: 0 | inactive: 0 | inactive: 0 | inactive: 0 | inactive: 0 | 0 | 0 |
| Cc1ccc(Nc2cc(-c3cccc(N4C(=O)c5ccccc5C4=O)c3)ncn2)cc1NS(C)(=O)=O (10 µM) | inactive: 0 | inactive: 0 | inactive: 0 | inactive: 0 | inactive: 0 | inactive: 0 | inactive: 0 | inactive: 0 | inactive: 0 | inactive: 0 | inactive: 0 | inactive: 0 | inactive: 0 | inactive: 0 | inactive: 0 | inactive: 0 | inactive: 0 | inactive: 0 | 0 | 0 |
| COc1ccc(CC(=O)Nc2nc3c(s2)CCc2ccccc2-3)cc1OC (10 µM) | inactive: 0 | inactive: 0 | inactive: 0 | inactive: 0 | inactive: 0 | inactive: 0 | inactive: 0 | inactive: 0 | inactive: 0 | inactive: 0 | inactive: 0 | inactive: 0 | inactive: 0 | inactive: 0 | inactive: 0 | inactive: 0 | inactive: 0 | inactive: 0 | 0 | 0 |
| Cc1ccc(S(=O)(=O)Nc2ccccc2C=Nc2ccccc2NS(=O)(=O)c2ccc(C)cc2)cc1 (10 µM) | inactive: 0 | inactive: 0 | inactive: 0 | inactive: 0 | inactive: 0 | inactive: 0 | inactive: 0 | inactive: 0 | inactive: 0 | inactive: 0 | inactive: 0 | inactive: 0 | inactive: 0 | inactive: 0 | inactive: 0 | inactive: 0 | inactive: 0 | inactive: 0 | 0 | 0 |
| Cc1c(CN2CCN(C(=O)[C@H](C)O)CC2)sc2c(N3CCOCC3)nc(-c3cnc(N)nc3)nc12 [Apitolisib] (10 µM) | inactive: 0 | inactive: 0 | inactive: 0 | inactive: 0 | inactive: 0 | inactive: 0 | inactive: 0 | inactive: 0 | inactive: 0 | inactive: 0 | inactive: 0 | inactive: 0 | inactive: 0 | inactive: 0 | inactive: 0 | inactive: 0 | inactive: 0 | inactive: 0 | 5 | 0 |
| CC/C=C\C/C=C\C/C=C\CCCCCCCC(=O)O [α-Linolenic acid] (10 µM) | inactive: 0 | inactive: 0 | inactive: 0 | inactive: 0 | inactive: 0 | inactive: 0 | inactive: 0 | inactive: 0 | inactive: 0 | inactive: 0 | inactive: 0 | inactive: 0 | inactive: 0 | inactive: 0 | inactive: 0 | inactive: 0 | inactive: 0 | inactive: 0 | 0 | 0 |
| COc1c(NC(=O)C(=O)c2ccc(OCCN3CCOCC3)c3ccccc23)cc(C(C)(C)C)cc1NS(C)(=O)=O (2.5 µM) | inactive: 0 | inactive: 0 | inactive: 0 | inactive: 0 | inactive: 0 | inactive: 0 | inactive: 0 | inactive: 0 | inactive: 0 | inactive: 0 | inactive: 0 | inactive: 0 | inactive: 0 | inactive: 0 | inactive: 0 | inactive: 0 | inactive: 0 | inactive: 0 | 0 | 0 |
| COc1cc2ncnc(Nc3cccc(Cl)c3)c2cc1OC (10 µM) | inactive: 0 | inactive: 0 | inactive: 0 | inactive: 0 | inactive: 0 | inactive: 0 | inactive: 0 | inactive: 0 | inactive: 0 | inactive: 0 | inactive: 0 | inactive: 0 | inactive: 0 | inactive: 0 | inactive: 0 | inactive: 0 | inactive: 0 | inactive: 0 | 0 | 0 |
| COc1cc(C(N)=O)nc(-c2cccc(C#C[C@]3(O)CCN(C)C3=O)c2)c1 (10 µM) | inactive: 0 | inactive: 0 | inactive: 0 | inactive: 0 | inactive: 0 | inactive: 0 | inactive: 0 | inactive: 0 | inactive: 0 | inactive: 0 | inactive: 0 | inactive: 0 | inactive: 0 | inactive: 0 | inactive: 0 | inactive: 0 | inactive: 0 | inactive: 0 | 0 | 0 |
| Cc1cc(NC(=O)c2cccc(NC(=O)/C=C/CN(C)C)c2)ccc1Nc1nccc(-c2cccnc2)n1 (10 µM) | inactive: 0 | inactive: 0 | inactive: 0 | inactive: 0 | inactive: 0 | inactive: 0 | inactive: 0 | inactive: 0 | inactive: 0 | inactive: 0 | inactive: 0 | inactive: 0 | inactive: 0 | inactive: 0 | inactive: 0 | inactive: 0 | inactive: 0 | inactive: 0 | 3 | 0 |
| CN1C(=O)C(Cc2c[nH]c3ccccc23)NC1=S (stereo not given) [Necrostatin-1] (10 µM) | inactive: 0 | inactive: 0 | inactive: 0 | inactive: 0 | inactive: 0 | inactive: 0 | inactive: 0 | inactive: 0 | inactive: 0 | inactive: 0 | inactive: 0 | inactive: 0 | inactive: 0 | inactive: 0 | inactive: 0 | inactive: 0 | inactive: 0 | inactive: 0 | 0 | 0 |
| O=C(CNC(=O)c1ccc(-c2ccccc2)cc1)NC1CCCc2ccccc21 (stereo not given) [TAO Kinase inhibitor 1] (10 µM) | inactive: 0 | inactive: 0 | inactive: 0 | inactive: 0 | inactive: 0 | inactive: 0 | inactive: 0 | inactive: 0 | inactive: 0 | inactive: 0 | inactive: 0 | inactive: 0 | inactive: 0 | inactive: 0 | inactive: 0 | inactive: 0 | inactive: 0 | inactive: 0 | 0 | 0 |
| Nc1ncnc2c1ncn2[C@@H]1O[C@H](CO)C[C@H]1O [Cordycepin] (10 µM) | inactive: 0 | inactive: 0 | inactive: 0 | inactive: 0 | inactive: 0 | inactive: 0 | inactive: 0 | inactive: 0 | inactive: 0 | inactive: 0 | inactive: 0 | inactive: 0 | inactive: 0 | inactive: 0 | inactive: 0 | inactive: 0 | inactive: 0 | inactive: 0 | 0 | 0 |
| COCCOc1ccc(-c2cn(-c3ccccc3)c3nc[nH]c(=O)c23)cc1 (10 µM) | inactive: 0 | inactive: 0 | inactive: 0 | inactive: 0 | inactive: 0 | inactive: 0 | inactive: 0 | inactive: 0 | inactive: 0 | inactive: 0 | inactive: 0 | inactive: 0 | inactive: 0 | inactive: 0 | inactive: 0 | inactive: 0 | inactive: 0 | inactive: 0 | 0 | 0 |

An excerpt of these results, tab-delimited.
SMILES	kinase-Nluc reporter destabilization hit call (RET)	kinase-Nluc reporter destabilization hit call [1]	kinase-Nluc reporter destabilization hit call (RIOK1)	kinase-Nluc reporter destabilization hit call (RIPK1)	kinase-Nluc reporter destabilization hit call (RIPK2)	kinase-Nluc reporter destabilization hit call (ROR2)	kinase-Nluc reporter destabilization hit call (RPS6KA1)	kinase-Nluc reporter destabilization hit call (SPHK1)	kinase-Nluc reporter destabilization hit call (SRC)	kinase-Nluc reporter destabilization hit call (STK24)	kinase-Nluc reporter destabilization hit call (STK38)	kinase-Nluc reporter destabilization hit call (SYK)	kinase-Nluc reporter destabilization hit call (TEC)	kinase-Nluc reporter destabilization hit call (TYK2)	kinase-Nluc reporter destabilization hit call (ULK3)	kinase-Nluc reporter destabilization hit call (YES1)	kinase-Nluc reporter destabilization hit call (ZAK)	kinase-Nluc reporter destabilization hit call (ZAP70)	number of time points (ABL1)	number of time points (AKT1)
Cc1ccc(S(=O)(=O)Nc2ccccc2C=Nc2ccccc2NS(=O)(=O)c2ccc(C)cc2)cc1 (10 µM)	inactive: 0	inactive: 0	inactive: 0	inactive: 0	inactive: 0	inactive: 0	inactive: 0	inactive: 0	inactive: 0	inactive: 0	inactive: 0	inactive: 0	inactive: 0	inactive: 0	inactive: 0	inactive: 0	inactive: 0	inactive: 0	0	0
Cc1c(CN2CCN(C(=O)[C@H](C)O)CC2)sc2c(N3CCOCC3)nc(-c3cnc(N)nc3)nc12 [Apitolisib] (10 µM)	inactive: 0	inactive: 0	inactive: 0	inactive: 0	inactive: 0	inactive: 0	inactive: 0	inactive: 0	inactive: 0	inactive: 0	inactive: 0	inactive: 0	inactive: 0	inactive: 0	inactive: 0	inactive: 0	inactive: 0	inactive: 0	5	0
